Read-outs that look alike come from different tables or passages of the source. Results are given in words; binding and its absence hold for the method and conditions named. Binding seen in cells or lysates may run through a third protein. Some binding calls cover weakened binding; strength is not graded here. For part of these data: Tags and fused reporters may be left off the sequences shown.
T1: ECSIT (endogenous, 143B TK- cells) (human (endogenous in 143B TK-)) (UniProt Q9BQ95)
T1 sequence: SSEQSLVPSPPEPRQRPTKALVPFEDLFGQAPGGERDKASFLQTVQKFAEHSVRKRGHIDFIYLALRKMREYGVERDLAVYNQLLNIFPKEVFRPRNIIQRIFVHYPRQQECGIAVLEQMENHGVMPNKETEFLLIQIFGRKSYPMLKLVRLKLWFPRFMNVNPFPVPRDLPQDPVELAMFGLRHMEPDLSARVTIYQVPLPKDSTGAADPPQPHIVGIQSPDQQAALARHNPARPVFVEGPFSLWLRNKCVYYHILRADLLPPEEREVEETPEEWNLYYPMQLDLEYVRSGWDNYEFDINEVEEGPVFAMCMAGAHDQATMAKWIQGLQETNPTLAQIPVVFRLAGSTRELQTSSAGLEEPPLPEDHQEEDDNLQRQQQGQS

The chains behind the UniProt entries cited, without tags or fusion partners. Residues count along the entry.
UniProt Q9Y375, residues 25-327: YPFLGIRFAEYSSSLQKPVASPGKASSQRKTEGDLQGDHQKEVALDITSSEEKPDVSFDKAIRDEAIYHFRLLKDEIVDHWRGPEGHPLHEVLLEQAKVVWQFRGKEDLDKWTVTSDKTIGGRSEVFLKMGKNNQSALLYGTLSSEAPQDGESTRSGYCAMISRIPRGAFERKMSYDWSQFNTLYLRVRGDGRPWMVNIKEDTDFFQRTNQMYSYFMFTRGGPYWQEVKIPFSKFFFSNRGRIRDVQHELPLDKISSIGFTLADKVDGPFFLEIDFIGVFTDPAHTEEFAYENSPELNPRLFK
UniProt P03886: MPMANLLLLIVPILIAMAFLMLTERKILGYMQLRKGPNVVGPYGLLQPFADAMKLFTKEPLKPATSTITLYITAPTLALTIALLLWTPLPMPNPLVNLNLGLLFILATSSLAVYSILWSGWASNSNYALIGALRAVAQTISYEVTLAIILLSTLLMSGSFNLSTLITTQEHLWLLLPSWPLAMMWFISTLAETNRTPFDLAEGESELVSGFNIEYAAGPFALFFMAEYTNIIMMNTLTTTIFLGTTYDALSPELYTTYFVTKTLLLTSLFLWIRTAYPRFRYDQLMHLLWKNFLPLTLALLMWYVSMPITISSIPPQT
UniProt P03897: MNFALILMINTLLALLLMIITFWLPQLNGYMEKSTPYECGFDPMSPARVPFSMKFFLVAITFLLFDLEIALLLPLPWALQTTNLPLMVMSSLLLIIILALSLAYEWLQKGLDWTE
UniProt P03901: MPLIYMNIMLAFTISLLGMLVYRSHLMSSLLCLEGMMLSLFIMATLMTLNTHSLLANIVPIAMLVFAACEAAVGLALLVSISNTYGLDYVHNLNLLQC
UniProt P03891: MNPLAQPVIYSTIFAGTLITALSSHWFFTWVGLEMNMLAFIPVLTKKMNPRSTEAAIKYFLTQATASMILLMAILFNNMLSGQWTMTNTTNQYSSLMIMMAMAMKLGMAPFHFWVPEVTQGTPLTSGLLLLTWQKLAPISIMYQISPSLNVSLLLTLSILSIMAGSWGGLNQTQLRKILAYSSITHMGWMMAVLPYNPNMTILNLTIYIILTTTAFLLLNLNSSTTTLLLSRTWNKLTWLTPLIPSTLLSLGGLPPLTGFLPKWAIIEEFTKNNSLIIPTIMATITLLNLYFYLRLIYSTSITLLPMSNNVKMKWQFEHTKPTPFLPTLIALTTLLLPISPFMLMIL

T2: COA1 with a C-terminal Flag tag (human) (UniProt Q9GZY4)
T2 sequence: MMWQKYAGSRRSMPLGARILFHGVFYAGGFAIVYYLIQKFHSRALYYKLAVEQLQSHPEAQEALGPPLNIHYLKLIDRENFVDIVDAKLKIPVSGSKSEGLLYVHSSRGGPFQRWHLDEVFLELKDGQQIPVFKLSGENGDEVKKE


How the values were obtained:
[1] = biological target: T1, ECSIT (endogenous, 143B TK- cells) (human (endogenous in 143B TK-)); test: co-IP
[2] = biological target: NDUFAF1 (endogenous, 143B TK- cells) (human (endogenous in 143B TK-)) (UniProt Q9Y375); test: co-IP
[3] = biological target: T2, COA1 with a C-terminal Flag tag (human); test: co-IP
[4] = biological target: T1, ECSIT (endogenous, 143B TK- cells) (human (endogenous in 143B TK-)); test: cross-linking
[5] = biological target: NDUFAF1 (endogenous, 143B TK- cells) (human (endogenous in 143B TK-)) (UniProt Q9Y375); test: cross-linking
[6] = biological target: T2, COA1 with a C-terminal Flag tag (human); test: co-IP; remark: listed apart in the source
[7] = biological target: T2, COA1 with a C-terminal Flag tag (human); test: co-IP; remark: listed apart in the source

Row | Molecule | binding [1] | binding [2] | binding [3] | also measured
1 | ND1, newly synthesised mtDNA-encoded complex I subunit (143B TK- cells) (from UniProt P03886 1-318) | binds | binds | – | –
2 | ND3, newly synthesised mtDNA-encoded complex I subunit (143B TK- cells) (from UniProt P03897 1-115) | binds | binds | – | –
3 | ND4L, newly synthesised mtDNA-encoded complex I subunit (143B TK- cells) (from UniProt P03901 1-98) | binds | binds | – | –
4 | ND3, newly synthesised mtDNA-encoded complex I subunit (HEK293T-derived cells) (from UniProt P03897 1-115) | – | – | binds | –
5 | ND4L, newly synthesised mtDNA-encoded complex I subunit (HEK293T-derived cells) (from UniProt P03901 1-98) | – | – | binds | –
6 | ND2, newly synthesised mtDNA-encoded complex I subunit (143B TK- cells) (from UniProt P03891 1-347) | binds | binds | – | binding [4]: binds; binding [5]: binds
7 | ND2, newly synthesised mtDNA-encoded complex I subunit (HEK293T-derived cells) (from UniProt P03891 1-347) | – | – | binds | –
8 | ACAD9 (endogenous, HEK293T-derived cells) (protein, UniProt Q9H845 38-621) AFAKELFLGKIKKKEVFPFPEVSQDELNEINQFLGPVEKFFTEEVDSRKIDQEGKIPDETLEKLKSLGLFGLQVPEEYGGLGFSNTMYSRLGEIISMDGSITVTLAAHQAIGLKGIILAGTEEQKAKYLPKLASGEHIAAFCLTEPASGSDAASIRSRATLSEDKKHYILNGSKVWITNGGLANIFTVFAKTEVVDSDGSVKDKITAFIVERDFGGVTNGKPEDKLGIRGSNTCEVHFENTKIPVENILGEVGDGFKVAMNILNSGRFSMGSVVAGLLKRLIEMTAEYACTRKQFNKRLSEFGLIQEKFALMAQKAYVMESMTYLTAGMLDQPGFPDCSIEAAMVKVFSSEAAWQCVSEALQILGGLGYTRDYPYERILRDTRILLIFEGTNEILRMYIALTGLQHAGRILTTRIHELKQAKVSTVMDTVGRRLRDSLGRTVDLGLTGNHGVVHPSLADSANKFEENTYCFGRTVETLLLRFGKTIMEEQLVLKRVANILINLYGMTAVLSRASRSIRIGLRNHDHEVLLANTFCVEAYLQNLFSLSQLDKYAPENLDEQIKKVSQQILEKRAYICAHPLDRTC | – | – | – | binding [6]: binds; binding [7]: binds
